Test results: doi:10.1101/2021.11.11.468204
These are yes or no findings as the source states them, for the method shown. For part of these data: Binding seen in cells or lysates may run through a third protein. Some entries that bind do so weakly or less than the wild type.

The chains behind the UniProt entries cited, without tags or fusion partners. Residues count along the entry.
UniProt O95202, residues 116-739: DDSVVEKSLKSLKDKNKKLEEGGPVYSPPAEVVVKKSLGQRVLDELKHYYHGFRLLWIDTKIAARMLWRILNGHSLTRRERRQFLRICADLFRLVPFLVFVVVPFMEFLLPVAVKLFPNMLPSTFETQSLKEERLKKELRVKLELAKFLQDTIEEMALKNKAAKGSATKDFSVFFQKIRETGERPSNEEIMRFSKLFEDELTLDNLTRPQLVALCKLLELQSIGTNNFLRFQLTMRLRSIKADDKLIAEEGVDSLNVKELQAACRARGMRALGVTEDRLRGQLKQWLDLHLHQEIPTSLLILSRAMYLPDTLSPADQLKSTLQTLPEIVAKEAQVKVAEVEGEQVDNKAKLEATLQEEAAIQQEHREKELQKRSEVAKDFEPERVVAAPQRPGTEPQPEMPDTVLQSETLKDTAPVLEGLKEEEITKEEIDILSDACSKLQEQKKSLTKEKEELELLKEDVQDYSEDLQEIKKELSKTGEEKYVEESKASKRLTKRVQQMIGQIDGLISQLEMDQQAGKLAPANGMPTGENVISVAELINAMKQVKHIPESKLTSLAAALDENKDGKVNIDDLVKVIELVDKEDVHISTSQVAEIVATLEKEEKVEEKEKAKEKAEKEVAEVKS

Assays:
[1] = target: T1, mitochondrial Morphology and Cristae Structure 1 (MICS1) (human (endogenous in HEK293)) (UniProt Q9H3K2); assay: co-IP
T1 sequence: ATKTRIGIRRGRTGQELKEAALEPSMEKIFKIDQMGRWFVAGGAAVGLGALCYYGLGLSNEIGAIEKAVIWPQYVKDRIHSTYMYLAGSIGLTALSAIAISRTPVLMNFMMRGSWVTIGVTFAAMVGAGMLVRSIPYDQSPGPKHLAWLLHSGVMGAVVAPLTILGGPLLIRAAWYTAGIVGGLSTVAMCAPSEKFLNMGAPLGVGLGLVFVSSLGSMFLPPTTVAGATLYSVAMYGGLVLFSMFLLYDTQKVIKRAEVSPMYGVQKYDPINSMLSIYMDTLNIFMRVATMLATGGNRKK

[2] = target: LETM1 (human (endogenous in HEK293)) (UniProt O95202); assay: native gel or EMSA
[3] = target: LETM1 (human (endogenous in HEK293)) (UniProt O95202); assay: co-IP

Row | Molecule | binding [1] | binding [2] | binding [3]
1 | LETM1 (from UniProt O95202 116-739) | binds |  | 
2 | mitochondrial Morphology and Cristae Structure 1 (MICS1) (protein, UniProt Q9H3K2 46-345) ATKTRIGIRRGRTGQELKEAALEPSMEKIFKIDQMGRWFVAGGAAVGLGALCYYGLGLSNEIGAIEKAVIWPQYVKDRIHSTYMYLAGSIGLTALSAIAISRTPVLMNFMMRGSWVTIGVTFAAMVGAGMLVRSIPYDQSPGPKHLAWLLHSGVMGAVVAPLTILGGPLLIRAAWYTAGIVGGLSTVAMCAPSEKFLNMGAPLGVGLGLVFVSSLGSMFLPPTTVAGATLYSVAMYGGLVLFSMFLLYDTQKVIKRAEVSPMYGVQKYDPINSMLSIYMDTLNIFMRVATMLATGGNRKK |  | binds | binds
